These are yes or no findings as the source states them, for the method shown. Some results given as binding are weak or reduced against the parent protein; the word gives no strength.
Biological target: Collagen type I (mouse) (UniProt P11087+Q01149)
Test: surface force apparatus; collagen I-coated mica surfaces; albumin (11 mg/mL) or γ-globulin (7 mg/mL) injected and left to adsorb for 36 min, PBS pH 7.4, 25 °C; thickness of the adsorbed layer from the shift of the hard wall; both purified

Amino acid sequences for entries named in this document (tags omitted). A change or cut given only in a name is not applied to a line headed by its entry. Residues count along the entry.
UniProt P11087: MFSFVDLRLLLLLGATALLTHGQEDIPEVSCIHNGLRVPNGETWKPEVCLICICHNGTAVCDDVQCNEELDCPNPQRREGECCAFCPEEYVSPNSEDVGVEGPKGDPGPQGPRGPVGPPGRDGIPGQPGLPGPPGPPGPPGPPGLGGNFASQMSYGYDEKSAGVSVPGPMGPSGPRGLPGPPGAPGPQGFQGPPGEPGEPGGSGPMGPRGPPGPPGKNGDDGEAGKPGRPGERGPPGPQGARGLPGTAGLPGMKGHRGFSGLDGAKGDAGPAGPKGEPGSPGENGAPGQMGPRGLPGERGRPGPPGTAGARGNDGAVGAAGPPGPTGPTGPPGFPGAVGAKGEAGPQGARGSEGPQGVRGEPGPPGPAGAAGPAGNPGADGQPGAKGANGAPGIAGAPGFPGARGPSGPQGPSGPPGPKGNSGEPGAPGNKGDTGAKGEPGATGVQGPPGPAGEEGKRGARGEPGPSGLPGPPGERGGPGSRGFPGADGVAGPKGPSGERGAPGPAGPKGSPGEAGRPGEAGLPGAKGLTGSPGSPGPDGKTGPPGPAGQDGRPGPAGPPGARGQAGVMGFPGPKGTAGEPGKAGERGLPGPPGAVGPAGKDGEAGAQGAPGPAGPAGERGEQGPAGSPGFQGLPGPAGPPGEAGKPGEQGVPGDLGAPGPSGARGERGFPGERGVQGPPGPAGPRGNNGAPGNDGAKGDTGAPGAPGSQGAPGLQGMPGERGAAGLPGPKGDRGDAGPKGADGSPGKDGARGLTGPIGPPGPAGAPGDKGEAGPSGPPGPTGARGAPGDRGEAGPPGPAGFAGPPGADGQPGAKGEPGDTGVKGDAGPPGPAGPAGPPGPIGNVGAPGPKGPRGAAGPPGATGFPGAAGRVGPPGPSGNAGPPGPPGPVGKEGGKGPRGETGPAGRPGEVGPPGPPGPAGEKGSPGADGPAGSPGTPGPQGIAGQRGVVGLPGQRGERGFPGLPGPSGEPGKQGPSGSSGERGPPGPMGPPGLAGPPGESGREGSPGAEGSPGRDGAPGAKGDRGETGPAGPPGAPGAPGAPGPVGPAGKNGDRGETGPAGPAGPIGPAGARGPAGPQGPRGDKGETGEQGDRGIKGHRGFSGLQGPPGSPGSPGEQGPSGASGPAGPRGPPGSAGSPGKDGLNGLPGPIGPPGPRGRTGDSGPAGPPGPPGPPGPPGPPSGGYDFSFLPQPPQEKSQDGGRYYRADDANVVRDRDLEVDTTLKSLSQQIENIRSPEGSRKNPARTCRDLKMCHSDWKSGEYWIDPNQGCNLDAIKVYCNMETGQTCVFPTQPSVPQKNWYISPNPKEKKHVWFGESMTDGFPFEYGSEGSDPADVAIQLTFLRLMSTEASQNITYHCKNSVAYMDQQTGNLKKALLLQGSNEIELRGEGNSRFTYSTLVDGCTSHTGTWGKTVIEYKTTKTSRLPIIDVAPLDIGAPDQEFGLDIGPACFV
UniProt Q01149: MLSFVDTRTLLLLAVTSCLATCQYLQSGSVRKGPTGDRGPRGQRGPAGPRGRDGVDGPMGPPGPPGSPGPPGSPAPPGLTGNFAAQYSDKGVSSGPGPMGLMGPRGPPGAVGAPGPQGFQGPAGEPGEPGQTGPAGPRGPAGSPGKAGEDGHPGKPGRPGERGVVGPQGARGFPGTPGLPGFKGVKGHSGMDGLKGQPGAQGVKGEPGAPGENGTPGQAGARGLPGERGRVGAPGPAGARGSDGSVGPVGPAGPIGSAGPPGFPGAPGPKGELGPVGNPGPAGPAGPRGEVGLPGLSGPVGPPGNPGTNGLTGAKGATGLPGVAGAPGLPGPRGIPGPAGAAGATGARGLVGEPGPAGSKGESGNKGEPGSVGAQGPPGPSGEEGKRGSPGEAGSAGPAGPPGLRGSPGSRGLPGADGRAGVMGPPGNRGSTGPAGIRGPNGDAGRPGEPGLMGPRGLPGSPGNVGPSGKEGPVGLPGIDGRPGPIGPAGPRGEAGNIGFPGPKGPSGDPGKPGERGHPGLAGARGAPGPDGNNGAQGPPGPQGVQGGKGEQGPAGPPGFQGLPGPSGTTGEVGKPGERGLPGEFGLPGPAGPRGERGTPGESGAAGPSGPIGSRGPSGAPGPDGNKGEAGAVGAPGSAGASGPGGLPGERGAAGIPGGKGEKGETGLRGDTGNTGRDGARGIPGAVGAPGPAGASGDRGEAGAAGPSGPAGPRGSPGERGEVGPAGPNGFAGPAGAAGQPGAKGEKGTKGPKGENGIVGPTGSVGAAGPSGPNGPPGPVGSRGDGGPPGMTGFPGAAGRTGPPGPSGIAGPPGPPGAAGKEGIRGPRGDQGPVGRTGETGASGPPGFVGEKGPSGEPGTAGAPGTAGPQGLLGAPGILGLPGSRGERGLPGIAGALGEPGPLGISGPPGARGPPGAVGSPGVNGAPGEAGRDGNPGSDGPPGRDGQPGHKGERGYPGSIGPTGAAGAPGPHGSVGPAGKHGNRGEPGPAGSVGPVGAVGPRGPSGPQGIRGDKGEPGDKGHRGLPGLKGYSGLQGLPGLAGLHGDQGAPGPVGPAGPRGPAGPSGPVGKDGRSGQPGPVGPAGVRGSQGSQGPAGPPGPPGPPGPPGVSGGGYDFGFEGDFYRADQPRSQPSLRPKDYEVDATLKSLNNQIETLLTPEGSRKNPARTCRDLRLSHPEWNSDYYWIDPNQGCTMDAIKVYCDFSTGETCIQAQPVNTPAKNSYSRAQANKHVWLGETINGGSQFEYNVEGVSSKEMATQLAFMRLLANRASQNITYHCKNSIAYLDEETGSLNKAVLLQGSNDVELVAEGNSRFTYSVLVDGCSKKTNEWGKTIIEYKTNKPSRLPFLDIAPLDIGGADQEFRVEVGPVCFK
UniProt P02769, residues 25-607: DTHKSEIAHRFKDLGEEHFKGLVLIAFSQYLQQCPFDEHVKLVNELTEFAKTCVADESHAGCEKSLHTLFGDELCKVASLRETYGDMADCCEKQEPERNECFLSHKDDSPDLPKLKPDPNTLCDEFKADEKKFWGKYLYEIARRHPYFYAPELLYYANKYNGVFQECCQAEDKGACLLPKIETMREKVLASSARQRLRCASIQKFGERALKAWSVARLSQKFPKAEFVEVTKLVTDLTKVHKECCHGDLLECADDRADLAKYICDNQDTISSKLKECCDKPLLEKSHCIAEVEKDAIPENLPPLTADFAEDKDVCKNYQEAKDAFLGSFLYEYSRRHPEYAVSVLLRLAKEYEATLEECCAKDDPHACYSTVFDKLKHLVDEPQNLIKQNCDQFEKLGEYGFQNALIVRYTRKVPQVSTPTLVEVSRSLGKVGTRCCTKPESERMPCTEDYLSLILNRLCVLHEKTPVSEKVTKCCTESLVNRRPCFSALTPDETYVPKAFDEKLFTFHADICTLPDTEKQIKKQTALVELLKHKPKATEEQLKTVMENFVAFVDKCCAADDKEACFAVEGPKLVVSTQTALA

## Bovine serum albumin (from UniProt P02769 25-607)
  binding: binds

From PMC8638261
